Results published in US20150258127A1, “METHODS FOR PREVENTING ANTIPHOSPHOLIPID SYNDROME (APS)” (INSERM (INSTITUT NATIONAL DE LA SANTÉ ET DE LA RECHERCHE …, priority 2012, published 2015).
At least one compound was matched to its structure with a doubt left.

What was measured:
[1] = tested on: kidney transplant recipients with antiphospholipid antibodies (Tx APA+); experiment: Kidney transplant recipients cohort: vascular lesions, mGFR, allograft survival; assay type: in vivo, human
Description: Briefly, the inventors studied a first group of transplant recipients with APA+ (Tx APA+, n=37) and a control group of transplants recipients without APA− (Tx APA−, n=59) engrafted during the same period. These patients were followed in the Transplant unit of Necker Hospital. All patients with functioning allograft had surveillances biopsies and measured glomerular filtration rate (mGFR) at 3- and 12-months post transplantation. Patients had similar immunosuppressive regimen consisting in steroids, purine inhibitor and calcineurine inhibitor, except for thirteen and ten patients in the Tx APA− and Tx APA+ group, respectively, that received sirolimus starting at day 0 instead of calcineurin inhibitor.
The serum creatinine level was measured using a Synchron Cx4 autoanalyzer (Beckman Coulter, Villepinte, France). The glomerular filtration rate (GFR) was evaluated by iohexol clearance at 3- and 12-months post transplant as previously described^25. Cyclosporine and tacrolimus serum levels were determined by radioimmunoas say and sirolimus serum levels by high-performance liquid chromatography^26.
Biopsy samples and morphological analysis: Human kidney biopsies were either fixed, in alcoholic Bouin's solution (native kidneys) or in alcohol-formalin-acetic acid solution (transplant kidneys). Carotid and left anterior descending arteries from autopsy cases were fixed in formalin. All samples were then embedded in paraffin. Four-μm sections were stained with Periodic Acid Schiff (PAS), Masson's trichrome and hematoxyin and eosin (H&E). […] Kidney biopsies were independently examined and scored by two pathologists at Necker Hospital. Lesions related to APS-nephropathy were quantified according to the usual criteria^12. For each biopsy, the number of vessels displaying fibrous intimal hyperplasia were counted in all the fields of the section, and the data were expressed as the number of damaged vessels for the total number of vascular sections. Lesions related to allograft nephropathy were evaluated according to the Banff classification^27, which takes into account glomerular, tubular and interstitial changes. Autopsy cases were carefully examined by two pathologists at La Pitie Salpetiere Hospital. Vascular lesions, and in particular fibrous intimal hyperplasia, were searched for and characterized in all the tissues.

[2] = tested on: vascular cells proliferation; experiment: Vascular cell proliferation (PCNA) in protocol kidney biopsies; assay type: in vivo, human; settings: Tx APA+ Siro+ patients

Compound: CO[C@H]1C[C@@H]2CC[C@@H](C)[C@@](O)(O2)C(=O)C(=O)N2CCCC[C@H]2C(=O)O[C@H]([C@H](C)C[C@@H]2CC[C@@H](O)[C@H](OC)C2)CC(=O)[C@H](C)/C=C(\C)[C@@H](O)[C@@H](OC)C(=O)[C@H](C)C[C@H](C)/C=C/C=C/C=C/1C [sirolimus, rapamycin]
- non-specific chronic allograft lesions of the vessels, interstitium and tubules (Banff scoring) ([1]; Tx APA+ Siro+ compared to Tx APA+ Siro−, first year of transplantation): less
- allograft survival rate (Kaplan Meier) ([1]; Tx APA+ Siro+ compared to Tx APA+ Siro−, median follow-up 52.5±23.5 months): significantly improved
- chronic APSN lesions, such as intimal hyperplasia ([1]; Tx APA+ Siro+, first year of transplantation, protocol biopsies): only very few
- thrombotic lesions in the damaged vessels ([1]; Tx aPL+ recipients, regardless of sirolimus administration): no thrombotic lesions were detected
- allograft outcome in the control group ([1]; transplant recipients without aPL, up to 144 months post transplantation): did not improve
- vascular cell proliferation (PCNA) [2]: dramatically reduced
